No constants are given. Whether binding was seen depends on the method and setting. Binding calls can cover weak binding; strength is not graded here. Tags and fused reporters may be left off the sequences shown.
Biological target: GST tagged PIP4k2b fragment Δ1 (N-terminus of PIP4k2b, amino acid 1-126) (mouse) (UniProt Q80XI4)
Test: pull-down; in vitro binding: MANF-His mixed with GST-PIP4k2b (or fragment) on glutathione beads in 500 μl NP40 buffer, 4 °C overnight; washed three times; western blotting; both purified

Amino acid sequences for entries named in this document (tags omitted). A change or cut given only in a name is not applied to a line headed by its entry.
UniProt Q80XI4: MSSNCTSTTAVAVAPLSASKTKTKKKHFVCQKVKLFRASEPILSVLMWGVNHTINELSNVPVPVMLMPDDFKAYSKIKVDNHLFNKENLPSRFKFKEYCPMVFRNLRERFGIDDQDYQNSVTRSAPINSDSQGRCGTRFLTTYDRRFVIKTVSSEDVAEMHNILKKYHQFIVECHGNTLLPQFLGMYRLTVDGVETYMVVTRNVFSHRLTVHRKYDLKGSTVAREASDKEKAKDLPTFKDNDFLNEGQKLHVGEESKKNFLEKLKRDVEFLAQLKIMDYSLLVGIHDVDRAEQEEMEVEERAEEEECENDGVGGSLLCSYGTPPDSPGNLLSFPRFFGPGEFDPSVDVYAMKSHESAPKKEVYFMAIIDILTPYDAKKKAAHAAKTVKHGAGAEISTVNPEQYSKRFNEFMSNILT

- binding: binds
B1: mouse MANF with a C-terminal His tag (MANF-His) (protein, UniProt Q9CXI5 22-179)
chain: LRPGDCEVCISYLGRFYQDLKDRDVTFSPATIEEELIKFCREARGKENRLCYYIGATDDAATKIINEVSKPLAHHIPVEKICEKLKKKDSQICELKYDKQIDLSTVDLKKLRVKELKKILDDWGEMCKGCAEKSDYIRKINELMPKYAPKAASARTDL

— paper PMC5603516
